Laboratory results: patent US20090010927A1

Target: recombinant GST-14-3-3β/ζ (bead-bound)
Experiment: pull-down with bead-bound GST-14-3-3 β/ζ from lysates of MK2 shRNA p53-/- MEFs treated with camptothecin or doxorubicin for eight hours, immunoblot (FIG. 31C)

binding: no binding
B1: endogenous Cdc25B in lysates of MK2 depleted (MK2 shRNA) p53-/- MEFs treated with camptothecin or doxorubicin (enzyme, mouse, UniProt P30306 1-576, looked up)
chain: MEVPLQKSAPGSALSPARVLGGIQRPRHLSVFEFESDGFLGSPEPTASSSPVTTLTQTMHNLAGLGSEPPKAQVGSLSFQNRLADLSLSRRTSECSLSSESSESSDAGLCMDSPSPVDPQMAERTFEQAIQAASRVIQNEQFTIKRFRSLPVRLLEHSPVLQSITNSRALDSWRKTEAGYRAAANSPGEDKENDGYIFKMPQELPHSSSAQALAEWVSRRQAFTQRPSSAPDLMCLTTEWKMEVEELSPVAQSSSLTPVERASEEDDGFVDILESDLKDDEKVPAGMENLISAPLVKKLDKEEEQDLIMFSKCQRLFRSPSMPCSVIRPILKRLERPQDRDVPVQSKRRKSVTPLEEQQLEEPKARVFRSKSLCHEIENILDSDHRGLIGDYSKAFLLQTVDGKHQDLKYISPETMVALLTGKFSNIVEKFVIVDCRYPYEYEGGHIKNAVNLPLERDAETFLLQRPIMPCSLDKRIILIFHCEFSSERGPRMCRFIRERDRAANDYPSLYYPEMYILKGGYKEFFPQHPNFCEPQDYRPMNHEAFRDELRNFRLKTRSWAGERSRRELCSRLQDQ
modifications: lacks the MK2 dependent 14-3-3 binding site; state not measured directly

No constants are given. Whether binding was seen depends on the method and setting. In cells and extracts the contact can be indirect.
